# Drug screen on melanoma cell lines: apoptosis marker

Values as published with doi:10.1371/journal.pone.0140310, rounded.

Every entry is a combination with lapatinib at 4 µM: CS(=O)(=O)CCNCc1ccc(-c2ccc3ncnc(Nc4ccc(OCc5cccc(F)c5)c(Cl)c4)c3c2)o1

Compounds and concentrations:
pazopanib (2 µM): Cc1ccc(Nc2nccc(N(C)c3ccc4c(C)n(C)nc4c3)n2)cc1S(N)(=O)=O
vismodegib (5 µM): CS(=O)(=O)c1ccc(C(=O)Nc2ccc(Cl)c(-c3ccccn3)c2)c(Cl)c1
FH535 (5 µM): Cc1cc([N+](=O)[O-])ccc1NS(=O)(=O)c1cc(Cl)ccc1Cl
GW441756 (2 µM): Cn1cc(/C=C2\C(=O)Nc3cccnc32)c2ccccc21
enzastaurin (4 µM): Cn1cc(C2=C(c3cn(C4CCN(Cc5ccccn5)CC4)c4ccccc34)C(=O)NC2=O)c2ccccc21
nutlin-3 (0.5 µM): COc1ccc(C2=N[C@@H](c3ccc(Cl)cc3)[C@@H](c3ccc(Cl)cc3)N2C(=O)N2CCNC(=O)C2)c(OC(C)C)c1
TCS401 (8.33 µM): O=C(O)C(=O)Nc1sc2c(c1C(=O)O)CCNC2
GSK0660 (5 µM): COC(=O)c1sccc1S(=O)(=O)Nc1ccc(Nc2ccccc2)cc1OC
VX-702 (2 µM): NC(=O)c1ccc(N(C(N)=O)c2c(F)cccc2F)nc1-c1ccc(F)cc1F
crizotinib (1 µM): C[C@@H](Oc1cc(-c2cnn(C3CCNCC3)c2)cnc1N)c1c(Cl)ccc(F)c1Cl
sorafenib (2 µM): CNC(=O)c1cc(Oc2ccc(NC(=O)Nc3ccc(Cl)c(C(F)(F)F)c3)cc2)ccn1
L-779450 (1 µM): Oc1cc(-c2nc(-c3ccccc3)[nH]c2-c2ccncc2)ccc1Cl
NVP-BEZ235 (0.02 µM): Cn1c(=O)n(-c2ccc(C(C)(C)C#N)cc2)c2c3cc(-c4cnc5ccccc5c4)ccc3ncc21
pioglitazone (10 µM): CCc1ccc(CCOc2ccc(CC3SC(=O)NC3=O)cc2)nc1 (centres undefined)
PF-562271 (0.4 µM): CN(c1ncccc1CNc1nc(Nc2ccc3c(c2)CC(=O)N3)ncc1C(F)(F)F)S(C)(=O)=O
bortezomib (0.005 µM): CC(C)C[C@H](NC(=O)[C@H](Cc1ccccc1)NC(=O)c1cnccn1)B(O)O
AZD7762 (0.1 µM): NC(=O)Nc1cc(-c2cccc(F)c2)sc1C(=O)N[C@H]1CCCNC1
PLX4720 (0.4 µM): CCCS(=O)(=O)Nc1ccc(F)c(C(=O)c2c[nH]c3ncc(Cl)cc23)c1F
SNS-314 (0.004 µM): O=C(Nc1cccc(Cl)c1)Nc1ncc(CCNc2ncnc3ccsc23)s1
cediranib (2 µM): COc1cc2c(Oc3ccc4[nH]c(C)cc4c3F)ncnc2cc1OCCCN1CCCC1
perifosine (2 µM): CCCCCCCCCCCCCCCCCCOP(=O)([O-])OC1CC[N+](C)(C)CC1
OSI-906 (2 µM): C[C@]1(O)C[C@@H](c2nc(-c3ccc4ccc(-c5ccccc5)nc4c3)c3c(N)nccn32)C1
darinaparsin (2 µM): C[As](C)SC[C@H](NC(=O)CC[C@H](N)C(=O)O)C(=O)NCC(=O)O

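Human melanoma cell lines in 1,536-well plates were treated with two drugs together for 72 h, then fixed, stained and imaged. Each value is the cleaved-PARP-positive fraction of nuclei relative to DMSO-treated wells, in %, so that 100 equals the control and higher values mean more apoptosis. Every drug was used at one fixed concentration, the higher of two screened. The file gives one value for each pair and line, without errors, so small differences may be noise. The marker varies much from line to line, for technical or biological reasons.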 Only some of the drugs and lines screened are listed, without regard to their results.

{"second drug": "perifosine", "SK-MEL-2": 19.8, "WM3526": 76.7, "RVH-421": 180, "A101D": 146, "IST-MEL1": 38.3, "RPMI-7951": 283, "SK-MEL-30": 81.1, "IPC-298": 171}
{"second drug": "FH535", "SK-MEL-2": 57.3, "WM3526": 216, "RVH-421": 338, "A101D": 331, "IST-MEL1": 231, "RPMI-7951": 63.9, "SK-MEL-30": 254, "IPC-298": 75.2}
{"second drug": "nutlin-3", "SK-MEL-2": 36.0, "WM3526": 61.5, "RVH-421": 197, "A101D": 260, "IST-MEL1": 77.1, "RPMI-7951": 417, "SK-MEL-30": 87.6, "IPC-298": 135}
{"second drug": "GSK0660", "SK-MEL-2": 91.0, "WM3526": 74.5, "RVH-421": 106, "A101D": 163, "IST-MEL1": 169, "RPMI-7951": 145, "SK-MEL-30": 224, "IPC-298": 68.8}
{"second drug": "PF-562271", "SK-MEL-2": 210, "WM3526": 196, "RVH-421": 256, "A101D": 114, "IST-MEL1": 132, "RPMI-7951": 673, "SK-MEL-30": 87.2, "IPC-298": 102}
{"second drug": "OSI-906", "SK-MEL-2": 95.6, "WM3526": 327, "RVH-421": 204, "A101D": 62.1, "IST-MEL1": 133, "RPMI-7951": 459, "SK-MEL-30": 144, "IPC-298": 56.8}
{"second drug": "GW441756", "SK-MEL-2": 16.6, "WM3526": 191, "RVH-421": 150, "A101D": 129, "IST-MEL1": 84.2, "RPMI-7951": 150, "SK-MEL-30": 156, "IPC-298": 104}
{"second drug": "darinaparsin", "SK-MEL-2": 75.0, "WM3526": 489, "RVH-421": 73.5, "A101D": 86.2, "IST-MEL1": 288, "RPMI-7951": 61.9, "SK-MEL-30": 176, "IPC-298": 95.1}
{"second drug": "enzastaurin", "SK-MEL-2": 341, "WM3526": 153, "RVH-421": 86.4, "A101D": 199, "IST-MEL1": 52.4, "RPMI-7951": 373, "SK-MEL-30": 46.8, "IPC-298": 122}
{"second drug": "NVP-BEZ235", "SK-MEL-2": 101, "WM3526": 402, "RVH-421": 151, "A101D": 118, "IST-MEL1": 139, "RPMI-7951": 100, "SK-MEL-30": 194, "IPC-298": 74.8}
{"second drug": "vismodegib", "SK-MEL-2": 29.0, "WM3526": 237, "RVH-421": 274, "A101D": 80.9, "IST-MEL1": 151, "RPMI-7951": 601, "SK-MEL-30": 61.6, "IPC-298": 194}
{"second drug": "AZD7762", "SK-MEL-2": 237, "WM3526": 1270, "RVH-421": 55.7, "A101D": 510, "IST-MEL1": 161, "RPMI-7951": 359, "SK-MEL-30": 631, "IPC-298": 211}
{"second drug": "bortezomib", "SK-MEL-2": 320, "WM3526": 3400, "RVH-421": 2210, "A101D": 394, "IST-MEL1": 1200, "RPMI-7951": 1880, "SK-MEL-30": 1480, "IPC-298": 3780}
{"second drug": "L-779450", "SK-MEL-2": 277, "WM3526": 235, "RVH-421": 73.3, "A101D": 265, "IST-MEL1": 89.1, "RPMI-7951": 126, "SK-MEL-30": 109, "IPC-298": 68.7}
{"second drug": "VX-702", "SK-MEL-2": 141, "WM3526": 202, "RVH-421": 73.8, "A101D": 217, "IST-MEL1": 79.2, "RPMI-7951": 122, "SK-MEL-30": 172, "IPC-298": 57.8}
{"second drug": "TCS401", "SK-MEL-2": 58.8, "WM3526": 33.0, "RVH-421": 111, "A101D": 21.8, "IST-MEL1": 117, "RPMI-7951": 61.9, "SK-MEL-30": 54.5, "IPC-298": 68.5}
{"second drug": "crizotinib", "SK-MEL-2": 66.1, "WM3526": 173, "RVH-421": 241, "A101D": 615, "IST-MEL1": 132, "RPMI-7951": 991, "SK-MEL-30": 127, "IPC-298": 61.0}
{"second drug": "sorafenib", "SK-MEL-2": 130, "WM3526": 182, "RVH-421": 141, "A101D": 74.4, "IST-MEL1": 121, "RPMI-7951": 951, "SK-MEL-30": 297, "IPC-298": 59.2}
{"second drug": "cediranib", "SK-MEL-2": 179, "WM3526": 188, "RVH-421": 30.1, "A101D": 139, "IST-MEL1": 95.2, "RPMI-7951": 1030, "SK-MEL-30": 305, "IPC-298": 107}
{"second drug": "PLX4720", "SK-MEL-2": 46.0, "WM3526": 478, "RVH-421": 174, "A101D": 66.7, "IST-MEL1": 132, "RPMI-7951": 357, "SK-MEL-30": 48.4, "IPC-298": 258}
{"second drug": "pazopanib", "SK-MEL-2": 83.5, "WM3526": 343, "RVH-421": 167, "A101D": 114, "IST-MEL1": 129, "RPMI-7951": 563, "SK-MEL-30": 131, "IPC-298": 152}
{"second drug": "SNS-314", "SK-MEL-2": 171, "WM3526": 159, "RVH-421": 112, "A101D": 98.2, "IST-MEL1": 171, "RPMI-7951": 435, "SK-MEL-30": 72.0, "IPC-298": 332}
{"second drug": "pioglitazone", "SK-MEL-2": 38.4, "WM3526": 130, "RVH-421": 53.2, "A101D": 167, "IST-MEL1": 90.5, "RPMI-7951": 151, "SK-MEL-30": 132, "IPC-298": 90.3}

Once more, the final 2:

Second drug	SK-MEL-2	WM3526	RVH-421	A101D	IST-MEL1	RPMI-7951	SK-MEL-30	IPC-298
SNS-314	171	159	112	98.2	171	435	72.0	332
pioglitazone	38.4	130	53.2	167	90.5	151	132	90.3